Measurements from patent publication US9956229B2, “Acyclic cucurbit[n]uril type molecular containers to treat intoxication and decrease relapse rate in substance abuse disorders” (UNIVERSITY OF MARYLAND, COLLEGE PARK, priority 2014, dated 2018).
Read-outs that look alike come from different tables or passages of the source. At least one compound was matched to its structure with a doubt left.

Key:
[1] = Direct 1H NMR titration, 1:1 binding model; settings: 20 mM NaH2PO4 buffered (pH 7.4) D2O, listed as 4-suldo calix[4]arene
Experimental: A direct titration was performed between the host and guest. The concentration of the host was kept constant while varying the concentration of the guest and the change in chemical shift of a selected host signal was measured. The change in chemical shift as a function of guest concentration was fitted to a 1:1 binding model to determine the Ka. In some cases, the concentration of guest was fixed and host concentration was varied, depending on the availability of a suitable ^1H NMR peak whose chemical shift change could be easily monitored.
1:1 Binding Model for NMR

[2] = cited from earlier work
[3] = calculated from average Krel and known Ka of CB[7]·TMSP

Compound | Binding Constant with Host (Ka), morphine [1] | Binding Constant with Host (Ka), cocaine ([1]; 1:1 model) | Binding Constant with Host (Ka), methamphetamine ([1]; 1:1 model) | Binding Constant with Host (Ka), phencyclidine ([1]; 1:1 model) | known Ka of CB[7]·TMSP [2] | Binding Constant with Host (Ka), methamphetamine [3]
O=S(=O)(O)c1cc2c(O)c(c1)Cc1cc(S(=O)(=O)O)cc(c1O)Cc1cc(S(=O)(=O)O)cc(c1O)Cc1cc(S(=O)(=O)O)cc(c1O)C2 [4-sulfo calix[4]arene] | (4.9 ± 0.3) × M^−1 | (4.3 ± 1.5) × M^−1 | (3.8 ± 0.6) × M^−1 | (5.0 ± 0.6) × M^−1 |  | 
O=C1N2CN3C(=O)N4CN5C(=O)N6CN7C(=O)N8CN9C(=O)N%10CN%11C(=O)N%12CN%13C(=O)N%14CN1C1C2N2CN%15C(=O)N(CN%16C(=O)N(CN%17C(=O)N(CN%18C(=O)N(CN%19C(=O)N(CN%20C(=O)N(CN1C2=O)C%14C%13%20)C%12C%11%19)C%10C9%18)C8C7%17)C6C5%16)C4C3%15 (stereo not drawn) [CB[7], cucurbit[7]uril] |  |  |  |  | (1.82±0.22)×10^7 M^−1 | (1.3 ± 0.2) × M^−1
